Results: PubChem BioAssay AID588497 (NMMLSC, 2011)
Among all 360,000 compounds or so, about 780 (0.22%) were called active. This list was built around the results that the source calls inconclusive (neither active nor inactive); the mix of calls is not that of the screen. No stated cut-off is given here; in the data, active means inhibition above about 35% (passing the limit was not always enough); inconclusive means no clear call, values can overlap the other calls.

test system: Botulinum neurotoxin type F light chain protease (Clostridium botulinum); assay: BoNT/F light chain protease inhibitors, primary screen, biochemical, flow cytometry, MLPCN library (AID 588497); conditions: Multiplex microsphere protease cleavage assay, at 10 µM, stronger effect = higher value; further: plate controls were buffer without enzyme for full effect and enzyme alone for no effect

Structure (SMILES) | inhibition
COCCN(Cc1nc(C(c2ccccc2)c2ccccc2)no1)C(C)C | inconclusive: -8.1%
Cc1ccc(NC(=S)NNC(=O)Cn2nc([N+](=O)[O-])cc2C)cc1 | inactive: 1.1%
CN(C(=O)Nc1ccc(C(C)(C)C)cc1)C1CCCCC1 | inconclusive: 59.6%
Cc1cccc(NC(=O)CSc2nnc(CCNC(=O)OC(C)(C)C)o2)c1C | inconclusive: -105%
O=C(CCl)NNc1nc(-c2ccccc2)c2cc(Cl)ccc2n1 | inconclusive: -28%
CCn1c(SCC(=O)Nc2cc(C)on2)nnc1-c1cccnc1 | inactive: -1.5%
O=C(O)CC1(CC(=O)N2CCOCC2)CCCC1 | inactive: -14.3%
C(=C\n1nnc2ccccc21)/c1ccc[nH]1 | inactive: -9.2%
CCOC(=O)c1cn2nc(Oc3ccc(C#N)cc3)ccc2n1 | inconclusive: 92.9%
CCC(C)(C)NC(=O)CN(C(=O)CCC(=O)Nc1nccs1)c1ccc(C)cc1 | inconclusive: 6.7%
CC1CN(C(=S)Nc2ccccc2)CC(C)O1 (configuration not stated) | inconclusive: 4.6%
COc1ccccc1-n1c(-c2cc(-c3ccco3)[nH]n2)n[nH]c1=S | active: 40.9%
COC(=O)c1ccc(S(=O)(=O)N2CCCCCC2)n1C | inconclusive: 57.6%
CCc1cc(OCCCSc2nc(C)cc(=O)[nH]2)ccc1Cl | inactive: -2.9%
O=C(Nc1ccc(Br)cn1)c1ccc(COc2c(F)c(F)cc(F)c2F)o1 | inactive: -0.8%
O=C(NC12CC3CC(CC(C3)C1)C2)C1=COCCO1 | inactive: -2.5%
COc1ccccc1N1CCN(C(=O)c2cc(C(=O)N3CCN(c4ccccc4OC)CC3)cc([N+](=O)[O-])c2)CC1 | inconclusive: -12.5%
Cn1cncc1C(=O)c1ccccc1 | inconclusive: 23.7%
CCN1CCN(c2c(Cl)cccc2NC(=O)c2ccc3nsnc3c2)CC1 | inconclusive: -47.7%
O=C(c1ccccc1[N+](=O)[O-])N1CCC2(CC1)OCCO2 | inconclusive: -6%
CCCCC(=O)N/N=C(/C)C1=C(C)C(C)(C)OC1=O | inactive: -4.7%
Cc1ccc(NC(=O)c2cccnc2)c([N+](=O)[O-])c1 | inconclusive: -0.9%
CCN(CC)C(=O)Oc1ccc(Br)cc1C(=O)Nc1ccc(F)cc1F | inconclusive: -65.3%

Structure (SMILES) | inhibition
COCC(=O)N(Cc1cc2cc(C)ccc2[nH]c1=O)c1ccc(C)c(C)c1 | inconclusive: -95.3%
c1ccc(C2CCC(N3CCN(c4ccccc4)CC3)CC2)cc1 (configuration not stated) | inconclusive: -9.7%
Cc1ccc(C(=O)/C=C/Nc2ccc3c(c2)OCO3)cc1 | inconclusive: 29.1%
COc1ccc(S(=O)(=O)NCC(c2ccc3c(c2)OCO3)N2CCN(C)CC2)cc1OC (configuration not stated) | inconclusive: 10.4%
Cc1cc(C)nc(N/N=C/c2ccccc2OCC(=O)O)n1 | inconclusive: 33.9%
COc1ccc(CNc2ncc(-c3ccccc3)n2C)c2ccccc12 | inconclusive: 7.8%
CC1=C([N+](=O)[O-])C(c2ccccc2C(F)(F)F)NC(=O)N1C (configuration not stated) | inconclusive: -4.9%
CC(C)CCNc1nc2c(c(=O)[nH]c(=O)n2C)n1CC(O)COC(C)C (configuration not stated) | inconclusive: -22.1%
COC(=O)c1cc2c(cc1Cl)SC(=NCCCN1CCOCC1)NS2(=O)=O | inconclusive: -22.4%
Cc1ccccc1OCCOC(=O)c1ccc(S(=O)(=O)N2CCCC2)cc1 | inactive: 3.1%
Nc1ccc(NC(=O)c2ccc(C(=O)Nc3ccc(N)cc3)cc2)cc1 | inconclusive: -0.5%
CCc1c(C)nc2ncnn2c1Nc1ccc(C)cc1 | inactive: -38.5%
CCOc1ccc(S(=O)(=O)N(CC(N)=O)c2ccc(C)cc2)cc1 | inconclusive: -36%
CCOc1ccc(OCCSc2nc3ccccc3n2CC(=O)O)cc1 | inconclusive: 45.2%
CCOc1ccccc1N1CCN(C(=O)c2cccs2)CC1 | inactive: -5.8%
c1ccc(Cc2nnc3sc(-c4cccs4)nn23)cc1 | inactive: 7.4%
Cc1cc(C)n2nc(C(=O)OCC(=O)N3CC(C)CC(C)C3)nc2n1 (configuration not stated) | inactive: 4.2%
CCOC(=O)c1cc(NC(=O)CCC(=O)O)ccc1N1CCCCC1 | inconclusive: 4%
CCOC(=O)c1sc2ncnc(NCC(c3cccs3)N(C)C)c2c1C (configuration not stated) | inactive: 1.3%
O=[N+]([O-])c1ccc(CSc2ccc(S(=O)(=O)N3CCOCC3)cn2)cc1 | inconclusive: -0.4%
N#Cc1cc([N+](=O)[O-])c(-n2nnc3ccccc32)c([N+](=O)[O-])c1 | inactive: -3.5%
Cn1c(=O)[nH]c(=O)c2c1nc(N1CCN(CCO)CC1)n2Cc1ccccc1Cl | inconclusive: -14.7%
COCCCNc1oc(-c2cccs2)nc1S(=O)(=O)c1ccc(C)cc1 | active: 39%

Structure (SMILES) | inhibition
COc1cccc(CNC(=O)N[C@@H](C)C(=O)O)c1 | inactive: 1.9%
O=c1[nH][nH]c2cc(=O)n(-c3ccc(Cl)cc3)nc12 | inactive: -4.9%
COc1ccc(CN2CCN(Cc3ccco3)CC2)cc1 | inconclusive: -8.6%
CCOC(=O)C1=C(Cn2cnc3ccccc32)NC(=O)NC1c1cc(C)ccc1C (configuration not stated) | inactive: -6%
Cc1cc(C)n(-c2cccc(CN3CCC(CO)(Cc4ccccc4)CC3)c2)n1 | inactive: -0.8%
Cc1cc(=O)[nH]c(Nc2cccc(Br)c2)n1 | inconclusive: -5.9%
CN(C)CCNC(=O)c1cccc2nc3c(ccc4ccccc43)nc12 | inactive: 14%
N#Cc1c(N)nc(N)nc1Nc1ccc(Br)cc1 | inconclusive: 2.6%
O=c1[nH]c(=S)n(-c2cccc(Cl)c2)c(O)c1/C=N/N1CCOCC1 | inconclusive: -43.7%
O=C(CSc1nnc(-c2cccnc2)n1Cc1ccco1)c1ccc2ccccc2c1 | inconclusive: -15.3%
Cc1cccc2cc(CN(Cc3cccs3)C(c3nnnn3C3CCCC3)C(C)C)c(=O)[nH]c12 (configuration not stated) | inconclusive: -51.9%
COc1ccc(CCCN2CCC(CN3C(=S)NC[C@@H]3Cc3ccccc3)CC2)cc1OC | inactive: -6.6%
O=C(Nc1ccc(Cl)cc1)N1CCC(c2nc(-c3ccc(F)cc3)no2)CC1 | inactive: -4.3%
COC(=O)c1ccc(C(=O)OC)c(NC(=O)COC(=O)CCOc2ccc(C)cc2)c1 | inconclusive: -15.4%
CCOc1ccc(N(C(C)C(=O)N/N=C(\C)c2cccc(NC(=O)c3ccccc3)c2)S(C)(=O)=O)cc1 (configuration not stated) | inconclusive: -5.2%
CCCN(CCC)CCNC(=O)C1c2ccccc2C(=O)N2CCc3ccccc3C12 (configuration not stated) | inactive: -6.4%
CC(=O)Nc1ccc2nc(-c3cccn3C)[nH]c2c1 | inconclusive: 17.5%
Cc1sc2nc(CSCC(=O)Nc3c(F)cccc3F)[nH]c(=O)c2c1C | inconclusive: -222%
CC(C)C(=O)N1N=C(c2ccc(NS(C)(=O)=O)cc2)CC1c1cccs1 (configuration not stated) | inactive: -9.7%
ONC(=Nc1ccc(Cl)cc1)c1ccccc1 | inactive: 1.1%
O=C(CN1CCN(c2ccccn2)CC1)Nc1nc2ccccc2s1 | inconclusive: 4.9%
Cn1cc(Br)c(C(=O)NC2C3CC4CC(C3)CC2C4)n1 (configuration not stated) | inactive: -3.2%
Cc1ccccc1NC(=S)NCc1ccc(F)cc1 | inconclusive: 3.1%

Structure (SMILES) | inhibition
CCOc1cc(-c2cc(-c3ccc(N)cc3)nc(N)c2C#N)ccc1O | inconclusive: -31.9%
CCCC(=O)NC(c1ccc(C)cc1)c1ccc2cccnc2c1O (configuration not stated) | inconclusive: -11.9%
NNC(=O)CCCCCCCCCCOCCCCO | inconclusive: -1.9%
CC(C)C(c1nnnn1C(C)(C)C)N1CCC(Cc2ccccc2)CC1 (configuration not stated) | inconclusive: 22.7%
Cc1c(C)c(C)c2[nH]c(-c3ccc4c(c3)OCO4)nc2c1C | inconclusive: -11.2%
COCC(=O)Nc1cc(C)cn(Cc2ccc(F)cc2)c1=O | inconclusive: 21.1%
O=C1c2ccccc2C(O)(c2ccccc2)N1c1ccncc1 (configuration not stated) | inconclusive: -6.6%
COc1ccc(NC(=O)COc2ccc(Br)cc2)c(OC)c1 | inconclusive: -14.7%
CC(=O)Nc1ccc(S(=O)(=O)N(C)CC(=O)N/N=C/c2ccc(C(=O)O)cc2)cc1 | inconclusive: 7.7%
CCOC(=O)c1c(NC(=O)COc2ccccc2F)sc2c1CC(C)(C)NC2(C)C | inconclusive: -1.3%
COc1cccc(CNC(=O)CCCC(=O)NC(C)CCc2ccccc2)c1 (configuration not stated) | inconclusive: -29.4%
C=CCc1cc(OC)ccc1OCCCCn1cncn1 | inconclusive: -8.6%
COc1ccc(C2C(C(=O)O)c3ccccc3C(=O)N2C)cc1Br (configuration not stated) | inconclusive: -5.4%
c1ccc(OCc2nn3c(-c4ccccn4)nnc3s2)cc1 | inactive: -0.8%
Fc1ccccc1/C=N/n1c(-c2cccnc2)n[nH]c1=S | inconclusive: 2%
CCc1ccc(OCC(=O)O/N=C(\N)c2cccnc2)cc1 | inconclusive: -20.1%
COc1cc(S(=O)(=O)N2CCN(C(=O)c3ccco3)CC2)c(OC)cc1C | inconclusive: -14%
Cc1ccccc1CN1CCN(S(C)(=O)=O)CC1 | inconclusive: 1.8%
CCn1c(SCCN2CCOCC2)nc2c1c(=O)n(C)c(=O)n2C | inconclusive: 3%
COC(=O)c1c(NC(NC(=O)c2ccccc2)(C(F)(F)F)C(F)(F)F)sc2c1CCN(C)C2 | inactive: -5.4%
COc1ccc(C2/C(=C(/O)c3ccc(Br)cc3)C(=O)C(=O)N2C)cc1 (configuration not stated) | inconclusive: 3.1%
O=C(NC(=S)Nc1ccccc1N1CCCC1)c1cccs1 | inconclusive: -28%
O=C(c1c(F)cccc1F)N1CCC(O)(c2ccc(F)cc2)CC1 | inconclusive: 5.9%

Given in CSV form: three of the compounds above
Structure (SMILES),inhibition
c1ccc(C2CCC(N3CCN(c4ccccc4)CC3)CC2)cc1 (configuration not stated),inconclusive: -9.7%
COC(=O)c1cc2c(cc1Cl)SC(=NCCCN1CCOCC1)NS2(=O)=O,inconclusive: -22.4%
Cc1cc(C)n2nc(C(=O)OCC(=O)N3CC(C)CC(C)C3)nc2n1 (configuration not stated),inactive: 4.2%
